These are yes or no findings as the source states them, for the method shown. In cells and extracts the contact can be indirect. These calls come from enrichment with a bait or labelling near it, and not all partners need be listed.
Target: 3xFLAG-BPLF1 (amino acid residues 1-235), N-terminal domain of the Epstein-Barr virus large tegument protein (Epstein-Barr virus (EBV)) (UniProt P03186)
Assay: affinity purification with mass spectrometry; tandem mass spectrometry of FLAG immunoprecipitates from cells transfected with FLAG-BPLF1, FLAG-BPLF1[C61A] or FLAG-empty vector; hits absent in duplicate vector samples and detected in both BPLF1 and BPLF1[C61A] immunoprecipitates; data set previously reported (ref. 24)

For “ANXA11 (annexin A11) (from UniProt P50995 1-505)”, the binding was “binds”.

In the case of ARF4 (from UniProt P18085 1-180), the binding is reported as “binds”.

For BAG3 (from UniProt O95817 1-575), the binding was “binds”.

With BAG6 (from UniProt P46379 1-1132) the binding was “binds”.

With GBF1 (from UniProt Q92538 1-1860) the binding was “binds”.

In the case of PDCD6 (from UniProt O75340 1-191), the binding is reported as “binds”.

PDCD6IP (from UniProt Q8WUM4 1-868) was tested, and the binding was “binds”.

B1: USO1 (protein, UniProt O60763 1-962)
chain: MNFLRGVMGGQSAGPQHTEAETIQKLCDRVASSTLLDDRRNAVRALKSLSKKYRLEVGIQAMEHLIHVLQTDRSDSEIIGYALDTLYNIISNEEEEEVEENSTRQSEDLGSQFTEIFIKQQENVTLLLSLLEEFDFHVRWPGVKLLTSLLKQLGPQVQQIILVSPMGVSRLMDLLADSREVIRNDGVLLLQALTRSNGAIQKIVAFENAFERLLDIISEEGNSDGGIVVEDCLILLQNLLKNNNSNQNFFKEGSYIQRMKPWFEVGDENSGWSAQKVTNLHLMLQLVRVLVSPTNPPGATSSCQKAMFQCGLLQQLCTILMATGVPADILTETINTVSEVIRGCQVNQDYFASVNAPSNPPRPAIVVLLMSMVNERQPFVLRCAVLYCFQCFLYKNQKGQGEIVSTLLPSTIDATGNSVSAGQLLCGGLFSTDSLSNWCAAVALAHALQENATQKEQLLRVQLATSIGNPPVSLLQQCTNILSQGSKIQTRVGLLMLLCTWLSNCPIAVTHFLHNSANVPFLTGQIAENLGEEEQLVQGLCALLLGISIYFNDNSLESYMKEKLKQLIEKRIGKENFIEKLGFISKHELYSRASQKPQPNFPSPEYMIFDHEFTKLVKELEGVITKAIYKSSEEDKKEEEVKKTLEQHDNIVTHYKNMIREQDLQLEELRQQVSTLKCQNEQLQTAVTQQVSQIQQHKDQYNLLKIQLGKDNQHQGSYSEGAQMNGIQPEEIGRLREEIEELKRNQELLQSQLTEKDSMIENMKSSQTSGTNEQSSAIVSARDSEQVAELKQELATLKSQLNSQSVEITKLQTEKQELLQKTEAFAKSVEVQGETETIIATKTTDVEGRLSALLQETKELKNEIKALSEERTAIKEQLDSSNSTIAILQTEKDKLELEITDSKKEQDDLLVLLADQDQKILSLKNKLKDLGHPVEEEDELESGDQEDEDDESEDPGKDLDHI
With B1 the binding was “binds”.
